{"sequences": {"note": "Amino acid sequences for entries named in this document (tags omitted). Residues count along the entry.", "UniProt P09038, 143-288": "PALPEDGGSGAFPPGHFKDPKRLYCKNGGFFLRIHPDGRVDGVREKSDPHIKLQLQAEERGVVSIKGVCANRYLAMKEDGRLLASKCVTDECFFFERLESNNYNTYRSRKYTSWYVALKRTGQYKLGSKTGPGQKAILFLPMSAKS"}, "source": "patent US7795255B2", "about": "“Rigidified compounds for modulating heparanase activity” (InSight Biopharmaceuticals Ltd., priority 2005, dated 2010)", "key": {"β-FGF": {"target": "β-FGF (Homo sapiens, UniProt P09038)", "assay": "ELISA for determination of binding of β-FGF to heparin", "details": "inhibition towards both growth factors", "experimental": "ELISA for determination of binding of β-FGF to heparin: 96-well microplates were coated for 2 hours at 23-25° C. with 5 μg/ml heparin-albumin (Rimon Biotech) and blocked with 1% BSA in PBS, with 0.05% Tween, and 0.01% thimerosal for 2 hours. β-FGF was added to the plates at a concentration of 10 ng/ml and plates were incubated for 45 minutes at 23-25° C. The amount of β-FGF bound to heparin was detected using anti-FGF monoclonal antibody (Sigma Cat. No. F6162) at a concentration of 2.5 ng/ml and secondary antibodies Sheep anti-mouse IgG linked to horseradish peroxidase (1:3000) TMB (Pierce Cat. No. 34021) was used as a substrate for peroxidase. The plates were read at 450 nm with a reference wavelength of 630 nm using a VERSAmax plate reader."}, "[1]": {"target": "T1, vascular endothelial growth factor (VEGF) (Homo sapiens, UniProt P15692)", "T1 sequence (P15692 27-191 isoform P15692-4)": "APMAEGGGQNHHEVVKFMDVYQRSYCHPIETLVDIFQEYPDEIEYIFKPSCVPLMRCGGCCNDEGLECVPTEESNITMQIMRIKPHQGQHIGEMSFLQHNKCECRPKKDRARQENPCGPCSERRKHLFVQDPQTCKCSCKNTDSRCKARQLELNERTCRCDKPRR", "assay": "ELISA for determination of binding of VEGF to heparin", "details": "inhibition towards both growth factors", "experimental": "Enzyme-linked immunosorbent assay (ELISA) for determination of binding of vascular endothelial growth factor (VEGF) to heparin: 96-well microplates were coated for 2 hours. at 23-25° C. with 5 μg/ml heparin-albumin (Rimon Biotech) and blocked with 1% bovine serum albumin (BSA) in phosphate buffer (PBS) with 0.05% Tween and 0.01% thimerosal for 2 hours. VEGF was added to the plates at a concentration of 10 ng/ml and the plates were thereafter incubated for 45 minutes at 23-25° C. The amount of VEGF bound to heparin was detected using anti-VEGF monoclonal antibody (Sigma Cat. No. V4758) at a concentration of 0.26 μg/ml and secondary antibodies Sheep anti-mouse IgG linked to horseradish peroxidase (1:2000) using 3,3′,5,5′-tetramethylbenzidine (TMB, Pierce Cat. No. 34021) as a substrate for peroxidase. The plates were read at 450 nm with a reference wavelength of 630 nm using a VERSAmax plate reader. […] Percent inhibition was calculated as compared with a control pre-incubated with a solution of 1% DMSO and the results are presented in Table 3 below."}, "heparanase (H53)": {"target": "T2, heparanase (H53) (Homo sapiens, UniProt Q9Y251)", "T2 construct": "The 45 kDa major subunit and the 8 kDa small subunit hetero-complex to form the 53 kDa active form of heparanase", "T2 sequence (Q9Y251 36-109 limits assumed)": "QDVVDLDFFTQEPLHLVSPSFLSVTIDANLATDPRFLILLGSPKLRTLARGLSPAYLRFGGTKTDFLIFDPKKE", "T2 sequence (Q9Y251 158-543 limits assumed)": "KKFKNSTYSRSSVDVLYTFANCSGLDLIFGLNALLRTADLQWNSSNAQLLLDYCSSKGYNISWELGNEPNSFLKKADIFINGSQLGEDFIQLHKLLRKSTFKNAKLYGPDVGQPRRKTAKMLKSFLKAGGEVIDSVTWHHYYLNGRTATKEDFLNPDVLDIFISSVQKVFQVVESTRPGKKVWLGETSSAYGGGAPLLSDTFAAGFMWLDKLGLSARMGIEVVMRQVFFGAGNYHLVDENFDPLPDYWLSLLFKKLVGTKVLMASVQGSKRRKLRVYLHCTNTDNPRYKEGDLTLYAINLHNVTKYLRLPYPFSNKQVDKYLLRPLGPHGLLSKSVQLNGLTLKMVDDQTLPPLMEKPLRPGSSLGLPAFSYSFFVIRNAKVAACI", "assay": "Heparanase (H53) assay (DMB assay)", "assay_type": "biochemical", "details": "compounds with an acidic group", "experimental": "Heparanase (H53) assay: The rigidified compounds described herein were tested for inhibition of heparanase activity in the DMB assay described in U.S. Pat. No. 6,190,875. IC50 was calculated from inhibition curves of all active compounds."}}, "note": "For at least one compound, name, drawing or mass did not settle the structure. Some entries repeat one wording, which the source may state once for all of them.", "data": [{"smiles": "CCOC(=O)CCCN1C(=O)c2cc3oc(-c4ccc([N+](=O)[O-])cc4)cc3n2C1=S", "note": "[Compound 1, ethyl 4-[2-(4-nitro-phenyl)-6-oxo-4-thioxo-6H-1-oxa-3b,5-diaza-cyclopenta[a]pentalen-5-yl]-butyric acid ethyl ester]", "values": [{"measurement": "inhibition of β-FGF binding to heparin", "setting": "β-FGF", "value": "sub-micromolar"}, {"measurement": "inhibition of VEGF binding to heparin", "setting": "[1]", "value": "sub-micromolar"}]}, {"smiles": "CCOC(=O)CCCN1C(=O)c2cc3oc(-c4ccc(Cl)cc4)cc3n2C1=S", "note": "[Compound 4, ethyl 4-[2-(4-chloro-phenyl)-6-oxo-4-thioxo-6H-1-oxa-3b,5-diaza-cyclopenta[a]pentalen-5-yl]-butyric acid ethyl ester]", "values": [{"measurement": "inhibition of β-FGF binding to heparin", "setting": "β-FGF", "value": "sub-micromolar"}, {"measurement": "inhibition of VEGF binding to heparin", "setting": "[1]", "value": "sub-micromolar"}]}, {"smiles": "CCOC(=O)CCCN1C(=O)c2cc3oc(-c4cccc(C(F)(F)F)c4)cc3n2C1=S", "note": "[Compound 25, ethyl 4-[6-oxo-4-thioxo-2-(3-trifluoromethyl-phenyl)-6H-1-oxa-3b,5-diaza-cyclopenta[a]pentalen-5-yl]-butyric acid ethyl ester]", "values": [{"measurement": "inhibition of β-FGF binding to heparin", "setting": "β-FGF", "value": "sub-micromolar"}, {"measurement": "inhibition of VEGF binding to heparin", "setting": "[1]", "value": "sub-micromolar"}]}, {"smiles": "O=C(O)CCCN1C(=O)c2cc3oc(-c4cccc(C(F)(F)F)c4)cc3n2C1=S", "note": "[Compound 26]", "values": [{"measurement": "dual activity: inhibition of pro-heparanase activation (H60) and of heparanase activity (H53)", "setting": "heparanase (H53)", "value": "dual activity"}]}]}
